Patent publication US20190375846A1
Results are given in words; binding and its absence hold for the method and conditions named. Some results given as binding are weak or reduced against the parent protein; the word gives no strength. Where a sequence is shown, tags or fusion partners need not be part of it.

B1: G_G10 scFv (scFv, V domains shown)
VH: EVQLVESGGGLVQPGGSLRLSCAASGFSLSTFGYGVGWVRQAPGKGLEWLAHIWWDDDKYYVDSVKGRFTISRDNAKNSLYLQMNSLRAEDTAVYYCARTRQYFPFAYWGQGTLVTVSS
VL: EIVLTQSPATLSLSPGERATLSCRASQSVGTNLAWYQQKPGQAPRLLIYYASYRYTGIPARFSGSGSGTDFTLTISSLEPEDFAVYYCQQYSNDPLTFGGGTKVEIK
B2: C_A9 scFv (scFv, V domains shown)
VH: EVQLVESGGGLVQPGGSLRLSCAASGFTFSTSSYGMSWVRQAPGKGLEWLANIWWDDEKYYVDSVKGRFTISRDNAKNSLYLQMNSLRAEDTAVYYCARTRMYFPFAYWGQGTLVTVSS
VL: EIVLTQSPATLSLSPGERATLSCRASQSVGSYLAWYQQKPGQAPRLLIYEASYRASGIPARFSGSGSGTDFTLTISSLEPEDFAVYYCQQYNNDPLTFGGGTKVEIK
B3: H_G1 scFv (scFv, V domains shown)
VH: EVQLVESGGGLVQPGGSLRLSCAASGFSFSTSGYGMGWVRQAPGKGLEWLANIWWDDDKYYVDSVKGRFTISRDNAKNSLYLQMNSLRAEDTAVYYCARGRRYFPFAYWGQGTLVTVSS
VL: EIVLTQSPATLSLSPGERATLSCRASQNVGSNLAWYQQKPGQAPRLLIYSASYRATGIPARFSGSGSGTDFTLTISSLEPEDFAVYYCQQYSNWPLTFGGGTKVEIK
B4: F_B11 scFv (scFv, V domains shown)
VH: EVQLVESGGGLVQPGGSLRLSCAASGFSLSTSGMGVSWVRQAPGKGLEWVAHIWWDDEKYYVDSVKGRFTISRDNAKNSLYLQMNSLRAEDTAVYYCARNRRYFPFAYWGQGTLVTVSS
VL: EIVLTQSPATLSLSPGERATLSCRASQSVGSNLAWYQQKPGQAPRLLIYSASYRATGIPARFSGSGSGTDFTLTISSLEPEDFAVYYCQQYSTDPLTFGGGTKVEIK
B5: C_B10 scFv (scFv, V domains shown)
VH: EVQLVESGGGLVQPGGSLRLSCAASGFSLSTSGMGMSWVRQAPGKGLEWLAHIWWDDDKYYVDSVKGRFTISRDNAKNSLYLQMNSLRAEDTAVYYCARNRRYFPFAYWGQGTLVTVSS
VL: EIVLTQSPATLSLSPGERATLSCRASQNVGSNLAWYQQKPGQAPRLLIYSASYRATGIPARFSGSGSGTDFTLTISSLEPEDFAVYYCQQYSNDPLTFGGGTKVEIK
B6: G_A6 scFv (scFv, V domains shown)
VH: EVQLVESGGGLVQPGGSLRLSCAASGFSLSTFSYGVSWVRQAPGKGLEWLAHIWWDSDKYYVDSVKGRFTISRDNAKNSLYLQMNSLRAEDTAVYYCARTRMYFPFAYWGQGTLVTVSS
VL: EIVLTQSPATLSLSPGERATLSCRASQNVGTYLAWYQQKPGQAPRLLIYDASYRYTGIPARFSGSGSGTDFTLTISSLEPEDFAVYYCQQYSNDPLTFGGGTKVEIK
B7: C_B12 scFv (scFv, V domains shown)
VH: EVQLVESGGGLVQPGGSLRLSCAASGFTFSTSGMGVSWVRQAPGKGLEWVAHIWWDDEKYYVDSVKGRFTISRDNAKNSLYLQMNSLRAEDTAVYYCARNRRYFPFAYWGQGTLVTVSS
VL: EIVLTQSPATLSLSPGERATLSCRASQSVGSNVAWYQQKPGQAPRLLIYSASNRYTGIPARFSGSGSGTDFTLTISSLEPEDFAVYYCQQYSTDPLTFGGGTKVEIK
B8: E_A1 scFv (scFv, V domains shown)
VH: EVQLVESGGGLVQPGGSLRLSCAASGFTLSTSGMGMSWVRQAPGKGLEWLAHIWWDDDKYYVDSVKGRFTISRDNAKNSLYLQMNSLRAEDTAVYYCARNRRYFPFAYWGQGTLVTVSS
VL: EIVLTQSPATLSLSPGERATLSCRASQSVGSNLAWYQQKPGQAPRLLIYSASYRASGIPARFSGSGSGTDFTLTISSLEPEDFAVYYCQQYSNDPLTFGGGTKVEIK
B9: F_F2 scFv (scFv, V domains shown)
VH: EVQLVESGGGLVQPGGSLRLSCAASGFSLSTSGMGMSWVRQAPGKGLEWVAHIWWDDEKYYVDSVKGRFTISRDNAKNSLYLQMNSLRAEDTAVYYCARNRRYFPFAYWGQGTLVTVSS
VL: EIVLTQSPATLSLSPGERATLSCRASQSVGSNLAWYQQKPGQAPRLLIYSASNRASGIPARFSGSGSGTDFTLTISSLEPEDFAVYYCQHYSTDPLTFGGGTKVEIK
B10: H_G4 scFv (scFv, V domains shown)
VH: EVQLVESGGGLVQPGGSLRLSCAASGFTFSTSGMGMSWVRQAPGKGLEWVAHIWWDDEKYYVDSVKGRFTISRDNAKNSLYLQMNSLRAEDTAVYYCARNRRYFPFAYWGQGTLVTVSS
VL: EIVLTQSPATLSLSPGERATLSCRASQNVGSNVAWYQQKPGQAPRLLIYSASYRATGIPARFSGSGSGTDFTLTISSLEPEDFAVYYCQQYSTDPLTFGGGTKVEIK
B11: E_B10 scFv (scFv, V domains shown)
VH: EVQLVESGGGLVQPGGSLRLSCAASGFSLSTSGYGVSWVRQAPGKGLEWLAHIWWDDEKYYVDSVKGRFTISRDNAKNSLYLQMNSLRAEDTAVYYCARNRRYFPFAYWGQGTLVTVSS
VL: EIVLTQSPATLSLSPGERATLSCRASQSVGTNLAWYQQKPGQAPRLLIYSASYRASGIPARFSGSGSGTDFTLTISSLEPEDFAVYYCQQYSTDPLTFGGGTKVEIK
B12: D_G11 scFv (scFv, V domains shown)
VH: EVQLVESGGGLVQPGGSLRLSCAASGFSLSTSSMGMGWVRQAPGKGLEWVAHIWWDDEKYYVDSVKGRFTISRDNAKNSLYLQMNSLRAEDTAVYYCARHRIYFPFAYWGQGTLVTVSS
VL: EIVLTQSPATLSLSPGERATLSCRASQSVGTYVAWYQQKPGQAPRLLIYDASNRYSGIPARFSGSGSGTDFTLTISSLEPEDFAVYYCQQYSTDPLTFGGGTKVEIK
B13: E_G11 scFv (scFv, V domains shown)
VH: EVQLVESGGGLVQPGGSLRLSCAASGFSLSTSGMGVSWVRQAPGKGLEWLAHIWWDDEKYYVDSVKGRFTISRDNAKNSLYLQMNSLRAEDTAVYYCARNRRYFPFAYWGQGTLVTVSS
VL: EIVLTQSPATLSLSPGERATLSCRASQNVGTNVAWYQQKPGQAPRLLIYSASNRATGIPARFSGSGSGTDFTLTISSLEPEDFAVYYCQQYSNDPLTFGGGTKVEIK
B14: H_C5 scFv (scFv, V domains shown)
VH: EVQLVESGGGLVQPGGSLRLSCAASGFSLSTSGMGMSWVRQAPGKGLEWVAHIWWDDEKYYVDSVKGRFTISRDNAKNSLYLQMNSLRAEDTAVYYCARNRRYFPFAYWGQGTLVTVSS
VL: EIVLTQSPATLSLSPGERATLSCRASQSVGTNVAWYQQKPGQAPRLLIYNASNRASGIPARFSGSGSGTDFTLTISSLEPEDFAVYYCQQYSTDPLTFGGGTKVEIK
B15: K_D6 scFv (scFv, V domains shown)
VH: EVQLVESGGGLVQPGGSLRLSCAASGFSLSTSGMGMSWVRQAPGKGLEWLAHIWWDDDKYYVDSVKGRFTISRDNAKNSLYLQMNSLRAEDTAVYYCARNRRYFPFAYWGQGTLVTVSS
VL: EIVLTQSPATLSLSPGERATLSCRASQSVGSNVAWYQQKPGQAPRLLIYSASYRASGIPARFSGSGSGTDFTLTISSLEPEDFAVYYCQQYSNDPLTFGGGTKVEIK
B16: E_F10 scFv (scFv, V domains shown)
VH: EVQLVESGGGLVQPGGSLRLSCAASGFSLSTSGYGVGWVRQAPGKGLEWVANIWWDDDKYYVDSVKGRFTISRDNAKNSLYLQMNSLRAEDTAVYYCARGRRYFPFAYWGQGTLVTVSS
VL: EIVLTQSPATLSLSPGERATLSCRASQNVGSYLAWYQQKPGQAPRLLIYSAYYRATGIPARFSGSGSGTDFTLTISSLEPEDFAVYYCQQYNTWPLTFGGGTKVEIK
B17: E_G3 scFv (scFv, V domains shown)
VH: EVQLVESGGGLVQPGGSLRLSCAASGFSLSTSGYGVGWVRQAPGKGLEWLANIWWDDDKYYVDSVKGRFTISRDNAKNSLYLQMNSLRAEDTAVYYCARARRYFPFAYWGQGTLVTVSS
VL: EIVLTQSPATLSLSPGERATLSCRASQNVGTYLAWYQQKPGQAPRLLIYSASYRASGIPARFSGSGSGTDFTLTISSLEPEDFAVYYCQQYSTWPLTFGGGTKVEIK
B18: D_A11 scFv (scFv, V domains shown)
VH: EVQLVESGGGLVQPGGSLRLSCAASGFTLSTSGMGMSWVRQAPGKGLEWVAHIWWDDEKYYVDSVKGRFTISRDNAKNSLYLQMNSLRAEDTAVYYCARNRRYFPFAYWGQGTLVTVSS
VL: EIVLTQSPATLSLSPGERATLSCRASQNVGTNVAWYQQKPGQAPRLLIYSASYRASGIPARFSGSGSGTDFTLTISSLEPEDFAVYYCQQYSTDPLTFGGGTKVEIK
B19: E_D10 scFv (scFv, V domains shown)
VH: EVQLVESGGGLVQPGGSLRLSCAASGFSLSTSGYGVGWVRQAPGKGLEWLAHIWWDDDKYYVDSVKGRFTISRDNAKNSLYLQMNSLRAEDTAVYYCARTVRYFPFAYWGQGTLVTVSS
VL: EIVLTQSPATLSLSPGERATLSCRASQSVGSNVAWYQQKPGQAPRLLIYSASNRYSGIPARFSGSGSGTDFTLTISSLEPEDFAVYYCQQYSTDPLTFGGGTKVEIK
B20: E_C8 scFv (scFv, V domains shown)
VH: EVQLVESGGGLVQPGGSLRLSCAASGFSLSTSGYGVGWVRQAPGKGLEWVAHIWWDDDKYYVDSVKGRFTISRDNAKNSLYLQMNSLRAEDTAVYYCARTRRYYPFAYWGQGTLVTVSS
VL: EIVLTQSPATLSLSPGERATLSCRASQSVGTYVAWYQQKPGQAPRLLIYSASYRASGIPARFSGSGSGTDFTLTISSLEPEDFAVYYCQQYSTSPLTFGGGTKVEIK
B21: C_D10 scFv (scFv, V domains shown)
VH: EVQLVESGGGLVQPGGSLRLSCAASGFSLSTSGMGMSWVRQAPGKGLEWLAHIWWDDDKYYVDSVKGRFTISRDNAKNSLYLQMNSLRAEDTAVYYCARNRRYFPFAYWGQGTLVTVSS
VL: EIVLTQSPATLSLSPGERATLSCRASQNVGTNVAWYQQKPGQAPRLLIYDASYRYTGIPARFSGSGSGTDFTLTISSLEPEDFAVYYCQQYSTDPLTFGGGTKVEIK
B22: J_C6 scFv (scFv, V domains shown)
VH: EVQLVESGGGLVQPGGSLRLSCAASGFSLSTSGYGVGWVRQAPGKGLEWVAHIWWDDDKYYVDSVKGRFTISRDNAKNSLYLQMNSLRAEDTAVYYCARTRQYFPFAYWGQGTLVTVSS
VL: EIVLTQSPATLSLSPGERATLSCRASQSVGSNVAWYQQKPGQAPRLLIYSASYRYTGIPARFSGSGSGTDFTLTISSLEPEDFAVYYCQQYSTDPLTFGGGTKVEIK

These binders were tested against T1, human GITR-Fc (human) (UniProt Q9Y5U5) (assay: post-selection screening ELISA, scFv).
T1 sequence (looked up): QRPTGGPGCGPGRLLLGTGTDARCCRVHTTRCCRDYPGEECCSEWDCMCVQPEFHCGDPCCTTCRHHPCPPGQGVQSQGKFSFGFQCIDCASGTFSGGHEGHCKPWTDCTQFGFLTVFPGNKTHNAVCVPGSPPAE

binding, binds:
B1
B2
B3
B4
B5
B6
B7
B8
B9
B10
B11
B12
B13
B14
B15
B16
B17
B18
B19
B20
B21
B22
